{"source": "PubChem BioAssay AID330", "about": "(DTP/NCI, 2004)", "test_system": "P388 leukemia ip, CD2F1 mice, survival T/C", "assay": "NCI In Vivo Anticancer Drug Screen. Data for tumor model P388 Leukemia (intraperitoneal) in CD2F1 (CDF1) mice", "settings": "T/C endpoint: median survival time, higher T/C = longer survival", "key": {"[1]": {"settings": "dose: 50.0 mg/kg/injection, schedule: Q01DX009 (ip), vehicle: saline"}, "[2]": {"settings": "dose: 100.0 mg/kg/injection, schedule: Q01DX009 (ip), vehicle: saline"}, "[3]": {"settings": "dose: 200.0 mg/kg/injection, schedule: Q01DX009 (ip), vehicle: saline"}, "[4]": {"settings": "dose: 25.0 mg/kg/injection, schedule: Q01DX005 (ip), vehicle: Klucel (hydroxypropylcellulose) (HPC)"}}, "note": "The list is a part of this screen's results and no random one: it is rich in T/C values a quarter to a half above the control, in often repeated tests (any T/C) and in doses without a T/C. Other doses and runs of a compound stand elsewhere. T/C gives the treated animals as a percentage of the vehicle group. Some entries give survivors of the animals treated and no T/C: the source holds a T/C of zero for them, seemingly a mark for toxic or unscored doses. Some survivor counts are full or nearly so, which does not show that the dose was tolerated: the source hardly ever lists a survival T/C far under the control, and the zero likely stands for such cases as well. Counts of survivors are from the toxicity check (mostly the fifth day) where no day follows; animals may have died later. Schedules are NCI's codes, read here as Q, the interval in days (D) or hours (H), X, the number of doses. Some entries were tested several times; their values stand side by side, smallest first. Where survival is the endpoint, this PubChem deposit counts one and a half times the control or more as active, and values a quarter to a half above the control carry no call in these data; other NCI protocols may use other cut-offs."}
{"smiles": "O=[N+]([O-])[O-].OCCNCCNCC[OH2+].OCCNCCNCC[OH2+].[Cu+2]", "values": [{"measurement": "survivor count", "setting": "[1]", "value": "0 of 6"}, {"measurement": "survivor count", "setting": "[2]", "value": "0 of 6"}, {"measurement": "survivor count", "setting": "[3]", "value": "0 of 6"}]}
{"smiles": "CC(Oc1ccccc1)C(=O)O", "note": "(configuration not stated)", "values": [{"measurement": "survivor count", "setting": "dose: 200.0 mg/kg/injection, schedule: Q01DX009 (ip), vehicle: saline with Tween-80", "value": "2 of 6"}, {"measurement": "survivor count", "setting": "dose: 400.0 mg/kg/injection, schedule: Q01DX009 (ip), vehicle: saline with Tween-80", "value": "0 of 6"}]}
{"smiles": "CCCc1c(-c2ccccc2)nc(N)nc1-c1nc(N)nc(-c2ccccc2)c1CCC", "values": [{"measurement": "survivor count", "setting": "dose: 240.0 mg/kg/injection, schedule: Q01DX005 (ip), vehicle: saline", "value": "2 of 6"}]}
{"smiles": "CNCCNc1ncc([N+](=O)[O-])s1", "values": [{"measurement": "survivor count", "setting": "dose: 100.0 mg/kg/injection, schedule: Q01DX001 (ip), vehicle: saline", "value": "4 of 6 and 6 of 6"}]}
{"smiles": "CNC(=O)OCc1c(C)oc(-c2ccccc2)c1COC(=O)NC", "values": [{"measurement": "survivor count", "setting": "dose: 100.0 mg/kg/injection, schedule: Q01DX009 (ip), vehicle: distilled water + Tween-80", "value": "6 of 6"}, {"measurement": "survivor count", "setting": "dose: 200.0 mg/kg/injection, schedule: Q01DX009 (ip), vehicle: distilled water + Tween-80", "value": "6 of 6"}]}
{"smiles": "CCN(CC)CCOc1cccc2c1C(=O)c1ccccc1C2=O", "values": [{"measurement": "survivor count", "setting": "[2]", "value": "2 of 4"}, {"measurement": "survivor count", "setting": "[3]", "value": "1 of 6"}]}
{"smiles": "Cc1ccc(S(=O)(=O)NN=c2cccccc2)cc1", "values": [{"measurement": "survivor count", "setting": "dose: 400.0 mg/kg/injection, schedule: Q01DX001 (ip), vehicle: DMSO", "value": "0 of 6"}]}
{"smiles": "CC(=O)OCC(=O)[C@@]1(O)CC[C@H]2[C@@H]3CCC4=CC(=O)[C@H](C)C[C@]4(C)[C@@]3(F)[C@@H](O)C[C@@]21C", "values": [{"measurement": "survivor count", "setting": "dose: 400.0 mg/kg/injection, schedule: Q04DX003 (ip), vehicle: Klucel (hydroxypropylcellulose) (HPC)", "value": "6 of 6"}]}
{"smiles": "CN(Cc1cnc2nc(N)nc(N)c2n1)c1ccc(C(=O)NC(CCC(=O)O)C(=O)O)cc1Br", "note": "(configuration not stated)", "values": [{"measurement": "survivor count", "setting": "dose: 5.0 mg/kg/injection, schedule: Q01DX009 (ip), vehicle: saline sonified", "value": "5 of 6"}, {"measurement": "survivor count", "setting": "dose: 10.0 mg/kg/injection, schedule: Q01DX009 (ip), vehicle: saline sonified", "value": "5 of 6"}, {"measurement": "T/C", "setting": "dose: 15.0 mg/kg/injection, schedule: Q04DX003 (ip), vehicle: saline with Tween-80", "value": "129 % of control"}, {"measurement": "survivor count", "setting": "dose: 20.0 mg/kg/injection, schedule: Q01DX009 (ip), vehicle: saline sonified", "value": "5 of 6"}, {"measurement": "T/C", "setting": "dose: 20.0 mg/kg/injection, schedule: Q04DX003 (ip), vehicle: saline with Tween-80", "value": "135 % of control"}]}
{"smiles": "CC(=O)C1(C(C)=O)C2=C(C(=O)C(Cl)=C(Cl)C2=O)N2C=CC=CC21", "note": "(configuration not stated)", "values": [{"measurement": "survivor count", "setting": "dose: 400.0 mg/kg/injection, schedule: Q04DX002 (ip), vehicle: saline", "value": "5 of 6"}]}
{"smiles": "CCCC[C@H]1C(=O)O[C@H](C)[C@H](NC(=O)c2cccc(NC=O)c2O)C(=O)O[C@@H](C)[C@@H]1OC(=O)CC(C)C", "values": [{"measurement": "survivor count", "setting": "dose: 0.5 mg/kg/injection, schedule: Q01DX009 (ip), vehicle: Klucel (hydroxypropylcellulose) (HPC)", "value": "5 of 6"}, {"measurement": "survivor count", "setting": "dose: 1.0 mg/kg/injection, schedule: Q01DX009 (ip), vehicle: Klucel (hydroxypropylcellulose) (HPC)", "value": "6 of 6"}, {"measurement": "survivor count", "setting": "dose: 2.0 mg/kg/injection, schedule: Q01DX009 (ip), vehicle: Klucel (hydroxypropylcellulose) (HPC)", "value": "0 of 6 and 4 of 6"}, {"measurement": "survivor count", "setting": "dose: 4.0 mg/kg/injection, schedule: Q01DX009 (ip), vehicle: Klucel (hydroxypropylcellulose) (HPC)", "value": "0 of 6"}]}
{"smiles": "c1ccc(CSC2=NCCN2)cc1", "values": [{"measurement": "survivor count", "setting": "dose: 25.0 mg/kg/injection, schedule: Q01DX009 (ip), vehicle: saline", "value": "3 of 6"}, {"measurement": "survivor count", "setting": "[1]", "value": "3 of 6"}, {"measurement": "survivor count", "setting": "[2]", "value": "0 of 6"}, {"measurement": "survivor count", "setting": "[3]", "value": "0 of 6"}]}
{"smiles": "CCN(CC)C/C=C(/C)CCC=C(C)C", "values": [{"measurement": "survivor count", "setting": "dose: 100.0 mg/kg/injection, schedule: Q04DX002 (ip), vehicle: saline with Tween-80", "value": "0 of 6"}, {"measurement": "survivor count", "setting": "dose: 200.0 mg/kg/injection, schedule: Q04DX002 (ip), vehicle: saline with Tween-80", "value": "0 of 6"}, {"measurement": "survivor count", "setting": "dose: 400.0 mg/kg/injection, schedule: Q04DX002 (ip), vehicle: saline with Tween-80", "value": "0 of 6"}]}
{"smiles": "CN=C1C=CC(=C(c2ccc(N(C)C)cc2)c2ccc(N(C)C)cc2)C=C1", "values": [{"measurement": "T/C", "setting": "dose: 6.25 mg/kg/injection, schedule: Q01DX005 (ip), vehicle: Klucel (hydroxypropylcellulose) (HPC)", "value": "126 % of control"}, {"measurement": "T/C", "setting": "dose: 12.5 mg/kg/injection, schedule: Q01DX005 (ip), vehicle: Klucel (hydroxypropylcellulose) (HPC)", "value": "128 and 130 % of control"}, {"measurement": "T/C", "setting": "[4]", "value": "130 % of control"}, {"measurement": "survivor count", "setting": "[4]", "value": "4 of 6"}, {"measurement": "survivor count", "setting": "dose: 50.0 mg/kg/injection, schedule: Q01DX005 (ip), vehicle: Klucel (hydroxypropylcellulose) (HPC)", "value": "1 of 6"}, {"measurement": "survivor count", "setting": "dose: 100.0 mg/kg/injection, schedule: Q01DX005 (ip), vehicle: Klucel (hydroxypropylcellulose) (HPC)", "value": "0 of 5"}, {"measurement": "survivor count", "setting": "dose: 200.0 mg/kg/injection, schedule: Q01DX005 (ip), vehicle: Klucel (hydroxypropylcellulose) (HPC)", "value": "0 of 6"}]}
